# Screen size: about 360,000 compounds; about 7,500 (2.1%) were called active. Inconclusive means that the source gave no clear call. Such entries were picked first, then a sample of the others. Calls follow the shape of the dose curve; as a rule, active = well fitted inhibition curve with a large enough effect; inconclusive = small, poorly fitted or top-dose-only effect, or effect the other way; inactive = flat fitted curve, though single readings scatter. A potency beside an inconclusive call is a rough fit, not a confirmed value.
# Test: Nrf2 qHTS screen for inhibitors; also: nearly all actives have a fitted effect of over 60% in size
# Details: A549 ARE-Fluc reporter, luciferase luminescence, 18-24 h; activity change, negative = inhibition: at 46 µM (top of the series)
# Method in brief: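 Quantitative HTS in A549 cells stably bearing an antioxidant response element-firefly luciferase construct. Inhibition of Nrf2-driven transcription was scored by luminescence after 18-24 h of compound exposure at 37 °C.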
# % is scaled to controls: 0 for no effect and ±100 for the full control effect; potency is read from the fitted curve at half-maximal effect.
SMILES,"activity change, negative = inhibition",Potency
CCOC(=O)c1noc2ncn(CC(=O)O)c(=O)c12,inactive: -0.729% [at 9.27 µM],
CCCOc1ccc(-c2nnn(CC(=O)c3ccc4c(c3)OCCO4)n2)cc1,,"inconclusive: 16.4 µM [falling, single point]"
CC(C)[C@H]1COCCS(=O)(=O)N1Cc1ccc(Cl)cc1,,"inconclusive: 23.1 µM [activator, partial curve, poor fit]"
O=C(Cn1cc(SCc2ccccc2Cl)c2ccccc21)N1CCCCCC1,,"inconclusive: 32.6 µM [falling, single point]"
COc1ccc(OC)c(CNS(=O)(=O)c2ccc(-c3cc(C(F)(F)F)on3)s2)c1,,active: 16.4 µM
CN(C(=S)Nc1ccccc1)c1ccccc1,,"inconclusive: 13 µM [falling, partial curve]"
COc1ccccc1N1CCN(C(=O)CSc2nc3ccccc3o2)CC1,,inactive
C/C(=N\NC(N)=O)c1c(F)cccc1F,,inactive
Cc1ccc(NC(=S)NCC23C=CC(O2)C2C(=O)N(c4ccc(C)cc4)C(=O)C23)cc1 (stereo not given),,inactive
O=C(NCCNc1ccc([N+](=O)[O-])cc1C(F)(F)F)c1ccc(F)cc1,,active: 20.6 µM
COc1cccc2c1Oc1cc([N+](=O)[O-])cc(N(C)C(C)=O)c1C=C2,,"inconclusive: 9.2 µM [activator, partial curve, poor fit]"
N/C(=N\OC(=O)c1ccc(Cl)c([N+](=O)[O-])c1)c1ccccc1,,"inconclusive: 4.61 µM [activator, full curve]"
Cc1cc(C(=O)CN2C(=O)C(=O)N(Cc3ccco3)C2=O)c(C)n1CCc1ccc(F)cc1,,"inconclusive: 18.4 µM [falling, single point]"
O=C(NN=C1CCCC1)c1ccc(O)cc1O,,"inconclusive: 32.6 µM [falling, single point]"
COc1ccc(C2N(c3ccccc3)CCN2c2ccccc2)cc1O,,"inconclusive: 29.1 µM [activator, single point]"
CC(=O)Nc1ccc(NC(=O)COc2ncnc3ccccc23)cc1,,inactive
CCCN1CCN(C(=S)Nc2ccc([N+](=O)[O-])cc2)CC1,,inactive
NC(=O)c1ccc2nc(NC(=O)c3ccc(N)cc3)sc2c1,,"inconclusive: 16.4 µM [activator, partial curve, poor fit]"
Cc1c(C#N)c(NC(=O)CCl)n(Cc2ccc(F)cc2)c1C,,active: 18.4 µM
Cc1ccc(S(=O)(=O)N2CCc3cc4c(cc3C2C)OCCCO4)cc1 (stereo not given),,"inconclusive: 23.1 µM [falling, single point]"
Cc1cccc(-c2cc3nc(C)cc(C)n3n2)c1,,"inconclusive: 8.2 µM [activator, partial curve]"
COCCNC(=O)CSc1nc(-c2ccccc2)c(-c2ccccc2)o1,,inactive
Cc1nn(-c2ccc(Cl)cc2)c(Cl)c1/C=N/NC(=O)c1ccc(NS(=O)(=O)c2cccs2)cc1,,"inconclusive: 29.1 µM [falling, single point]"
O=C(c1ccc(NS(=O)(=O)c2cccc(F)c2)cc1)N1CCCCC1,,"inconclusive: 29.1 µM [falling, single point]"

# Arranged by SMILES length (descending): 4 of the compounds above.
SMILES,"activity change, negative = inhibition",Potency
Cc1ccc(NC(=S)NCC23C=CC(O2)C2C(=O)N(c4ccc(C)cc4)C(=O)C23)cc1 (stereo not given),,inactive
O=C(Cn1cc(SCc2ccccc2Cl)c2ccccc21)N1CCCCCC1,,"inconclusive: 32.6 µM [falling, single point]"
COCCNC(=O)CSc1nc(-c2ccccc2)c(-c2ccccc2)o1,,inactive
CC(C)[C@H]1COCCS(=O)(=O)N1Cc1ccc(Cl)cc1,,"inconclusive: 23.1 µM [activator, partial curve, poor fit]"

# Continued.

SMILES,"activity change, negative = inhibition",Potency
COc1cc(CNn2c(C)n[nH]c2=S)cc(Cl)c1OCC(=O)NC(C)(C)C,,"inconclusive: 18.4 µM [falling, single point]"
CCc1ccc(C2c3c(n[nH]c3C)C(=O)N2c2ccc(C)cc2)cc1 (stereo not given),,inactive
Cc1ccc2[nH]cc(CCNC(=O)Nc3ccccc3)c2c1,,"inconclusive: 29.1 µM [falling, single point]"
CC(=O)c1cnn(-c2nc3c(C)cccc3s2)c1C,,"inconclusive: 23.1 µM [activator, partial curve]"
NC(=O)CC(NC(=O)Cc1ccc(Br)cc1)c1ccc(NCc2ccc(F)cc2)c([N+](=O)[O-])c1 (stereo not given),,"inconclusive: 16.4 µM [falling, partial curve]"
CC(=O)N1c2ccc(S(=O)(=O)N3CCC(C(=O)N4CCN(c5ccc(Cl)cc5)CC4)CC3)cc2CC1C (stereo not given),,active: 5.17 µM
O=C(CCc1ccccc1)Nc1ncnc2c1C(c1ccccc1)c1c(ccc3ccccc13)O2 (stereo not given),,active: 4.61 µM
CCC1CN(C(=O)Nc2cccc3c2CCCC3)c2cc(C)ccc2O1 (stereo not given),,"inconclusive: 10.3 µM [activator, partial curve]"
Cc1sc2nc(C)n(/N=C/c3ccc(O)cc3)c(=O)c2c1C,,"inconclusive: 4.61 µM [falling, partial curve, poor fit]"
COc1ccc(C(=O)Nc2oc(-c3ccccc3)c(-c3ccccc3)c2C#N)cc1OC,,"inconclusive: 23.1 µM [falling, partial curve, poor fit]"
CCC(C)Sc1nc2ccccc2c(=O)[nH]1 (stereo not given),,inactive
CCOC(=O)NNc1ccc(C(F)(F)F)cn1,,"inconclusive: 3.66 µM [activator, single point]"
Cn1cc([N+](=O)[O-])c(C(=O)Nc2ccc3c(c2)OCCO3)n1,,"inconclusive: 3.26 µM [activator, full curve, poor fit]"
Cc1cccc(NC(=O)c2c(Br)sc3c2CCCC3)c1,,inactive
Cc1ccc(NCC(=O)c2ccc(C)cc2)cc1,,"inconclusive: 7.31 µM [activator, partial curve]"
CCCOC(=O)/C(C(N)=NCc1ccccc1)=C(\O)OCCC,,"inconclusive: 29.1 µM [falling, single point]"
COc1ccccc1N1CCN(C(=O)CSc2nc(-c3ccc(C(C)C)cc3)no2)CC1,,inactive
O=C(NCC1COc2ccccc2O1)C1CCCN(S(=O)(=O)c2cccc3cccnc23)C1 (stereo not given),,"inconclusive: 25.9 µM [falling, partial curve, poor fit]"
C=CCOC(=O)C1=C(C)Nc2nc3ccccc3n2C1c1ccncc1 (stereo not given),,"inconclusive: 3.66 µM [falling, partial curve, poor fit]"
COc1cc(OC)c(N(C)S(=O)(=O)c2cccc(C(=O)Nc3nc(C)cs3)c2)cc1Cl,,"inconclusive: 25.9 µM [falling, single point]"
Cc1ccc(-c2nnc(Nc3ccc4c(c3)nc(C)n4C)c3ccccc23)cc1,,active: 20.6 µM
Cc1ccc(NC(=O)COc2ccc(Br)cc2CO)cc1S(=O)(=O)N1CCOCC1,,"inconclusive: 29.1 µM [falling, single point]"
COc1cc(/C=C\C(=O)NCc2ccc3[nH]c(C)cc3c2)cc(OC)c1OC,,inactive
COc1ccc(/C=C(/NC(=O)c2ccccc2)C(=O)N2CCCC2)cc1,,"inconclusive: 8.2 µM [activator, partial curve, poor fit]"

SMILES,"activity change, negative = inhibition",Potency
COc1ccc(C2CC(=O)c3c([nH]c(C(=O)OCc4ccccc4)c3C)C2)cc1OC (stereo not given),,"inconclusive: 0.326 µM [falling, partial curve, poor fit]"
O=C(COc1ccccc1F)Nc1nnc(S(=O)(=O)N2CCCCCC2)s1,,"inconclusive: 2.31 µM [activator, full curve]"
O=C(/C=C\Nc1cccc(F)c1)c1cccs1,,"inconclusive: 2.91 µM [activator, full curve]"
CCO[C@H]1OC(C(=O)NCc2nc3ccccc3[nH]2)=C[C@@H](c2cn(C(C)=O)c3ccccc23)[C@@H]1CCCO,,"inconclusive: 5.17 µM [falling, partial curve, poor fit]"
COc1cccc(C2=NN(S(C)(=O)=O)C(c3cn(-c4ccccc4)nc3-c3cccs3)C2)c1 (stereo not given),,inactive
COc1ccc(CNC(=O)CN(C)c2nn3c(=O)cc(C)nc3s2)cc1,,inactive
CCc1nnc(NC(=O)Nc2ccc(Cl)cc2)s1,,"inconclusive: 32.6 µM [activator, partial curve, poor fit]"
O=C(NCCCN1CCOCC1)c1nn(-c2ccccc2)c(=O)c2ccccc12,,"inconclusive: 6.51 µM [falling, partial curve, poor fit]"
COc1ccccc1NC(=O)N1CC=C(c2c[nH]c3ccccc23)CC1,,"inconclusive: 4.11 µM [falling, full curve, poor fit]"
[2H]C(CCOS(N)(=O)=O)c1ccc(C(C)(C)C)cc1 (stereo not given),,active: 5.17 µM
O=C(Nc1ccc(CN2CCS(=O)(=O)CC2)cc1)c1ccc(F)cc1,,inactive
O=C(NCCc1ccccc1)c1cc(-c2ccc3c(c2)OCO3)on1,,inactive
Cc1ccc(CNC(=O)CSc2nccn(-c3ccc(C)c(F)c3)c2=O)cc1,,inactive
COc1ccc(C2NC(=O)c3ccccc3N2)cc1 (stereo not given),,"inconclusive: 9.2 µM [activator, partial curve]"
O=C(Nc1ccc(OCC(=O)N2CCOCC2)cc1)c1ccccc1F,,"inconclusive: 29.1 µM [falling, single point]"
Cc1ccc(-c2noc(-c3ccc(NCC4CCCO4)c([N+](=O)[O-])c3)n2)cc1 (stereo not given),,"inconclusive: 20.6 µM [falling, single point]"
CCCCOc1cccc(C(=O)N(Cc2ccc(Cl)cc2)C2CCS(=O)(=O)C2)c1 (stereo not given),,inactive
CC(NC(=O)Oc1cccc2ccccc12)c1ccccc1 (stereo not given),,inactive
CCC(=O)NNc1ccc(Br)cc1,,inactive
COc1ccc(NC(=O)c2ccc(Cl)c(S(=O)(=O)NCC3CCCO3)c2)c(OC)c1 (stereo not given),,"inconclusive: 29.1 µM [falling, partial curve, poor fit]"
COc1cc2c(cc1NC(=O)CN1C(=O)NC3(CCc4ccccc43)C1=O)oc1ccccc12 (stereo not given),,"inconclusive: 23.1 µM [falling, single point]"
C=CCN(Cc1ccc(Cl)s1)C(=O)c1ccc(F)c(S(=O)(=O)N2CCOCC2)c1,,"inconclusive: 23.1 µM [falling, single point]"
